Results are given in words; binding and its absence hold for the method and conditions named. In cells and extracts the contact can be indirect. Some entries that bind do so weakly or less than the wild type. Sequences can lack the tags named with a protein.
Target: T1, IHFα1, integration host factor α subunit encoded by ihfA-1 of G. sulfurreducens, histidine-tagged (Geobacter sulfurreducens) (UniProt Q74CZ8)
T1 sequence: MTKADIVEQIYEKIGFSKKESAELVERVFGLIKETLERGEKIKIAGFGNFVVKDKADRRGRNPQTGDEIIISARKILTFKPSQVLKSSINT
Assay: pull-down; His-tagged IHFα1 and untagged IHFβ2 co-expressed in E. coli from one promoter; IHFα1 held on Ni-NTA resin, 4°C, non-denaturing conditions; IHFβ2 co-eluted

binding: binds
B1: IHFβ2, integration host factor β subunit encoded by ihfB-2 of G. sulfurreducens, untagged (protein, UniProt Q749Z0 1-96)
chain: MTKSELVEMLAEKNSWLTRKDSEMVVNIVFDSIADALKSGEKVEIRGFGSFTVRERGAREARNPKSGAIVKIPAKKTPFFKTGKELRERVNHENAD
